Reference: PubChem BioAssay AID2685 (National Center for Advancing Translational Sciences (NCATS), 2010)
Hit rate of the full screen: of about 320,000 compounds, about 2,100 (0.66%) were called active. The shares of active, inactive and inconclusive entries below differ from those in the screen. Calls follow the shape of the dose curve; as a rule, active = well fitted inhibition curve with a large enough effect in the signal ratio, with a control signal flat (not every such curve was filed as active); inconclusive = small, poorly fitted or top-dose-only effect, or effect the other way, or a change in a side signal; inactive = flat fitted curve, though single readings scatter; the % refers to the signal ratio. Where the call is inconclusive, the potency comes from a doubtful curve fit.

Experiment: qHTS Assay for Lipid Storage Modulators in Drosophila S3 Cells
Details: BODIPY lipid droplet fluorescence, 18-24 h, cells fed with added oleic acid; lipid storage change, negative = inhibition: at 46.1 µM (top of the series) unless noted
Method in brief: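 Drosophila S3 cells got compounds at several concentrations plus oleic acid (400 uM solution). Laser-scanning cytometry with 488 nm excitation read lipid droplets at 500-530 nm and cells at 575-640 nm. Percent activity was relative to 20 uM Triacsin C.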
% is scaled to controls: 0 for no effect and ±100 for the full control effect; potency is read from the fitted curve at half-maximal effect.

Structure (SMILES) | lipid storage change, negative = inhibition | Potency
CCCCCCCCCCOC(=O)Cn1c(COc2ccc(OC)cc2)[n+](C)c2ccccc21 | inconclusive: -65.9% | 
CCOC(=O)N1CCN(C(=O)CN(c2ccc(Oc3ccccc3)cc2)S(C)(=O)=O)CC1 |  | inconclusive: 9.2 µM [activator, partial curve]
CCN1CCN(C(=O)CS(=O)(=O)Cc2nc(-c3cccc(OC)c3)oc2C)CC1 | inconclusive: -2.87% | 
COc1ccc(C(C)=O)cc1COC(=O)CSC(C)C(=O)Nc1cc(C)on1 (centres undefined) | inconclusive: 84.2% | 
COc1ccc(N2CCN(C(=O)c3ccccc3NC(=O)c3ccccc3)CC2)cc1 |  | inconclusive: 29.1 µM [activator, single point]
C/C(=C\c1ccco1)C1Nc2cccc3cccc(c23)N1 |  | active: 18.4 µM
COc1cc(OC)c2ccc(=O)oc2c1C(CCN1CCCC1)c1ccc(N(C)C)cc1 (centres undefined) | inactive | 
S=C(Nc1ccc(Cl)cc1)NN1CCOCC1 | inactive | 
COc1cccc(N=Nc2ccc(O)c3ncccc23)c1 |  | inconclusive: 2.91 µM [falling, partial curve, poor fit]
N#Cc1c(NC(=O)CSC2=NCCS2)sc2c1CCCC2 | inconclusive: 11.5% | 
COc1ccc(NC(=O)Nc2ccc(C)cc2OC(F)F)cc1OC |  | inconclusive: 2.06 µM [activator, partial curve, poor fit]
COc1ccc(CCNC(=O)C/C(C)=N/NC(=O)C(c2ccccc2)c2ccccc2)cc1OC | inconclusive: -6.07% | 
CN(C)c1oc(/C=C/c2cccs2)nc1S(=O)(=O)c1ccccc1 | inconclusive: -28.1% | 
COc1ccc(CCNc2ccc(C(CC(N)=O)NC(=O)Cc3ccc(Br)cc3)cc2[N+](=O)[O-])cc1 (centres undefined) |  | inconclusive: 32.6 µM [falling, single point]
COc1ccc(NC(=O)c2ccc(NC(=O)c3nc4nc(C)cc(C)n4n3)cc2)cc1 | inconclusive | 
COc1ccccc1CNC(=O)C1CC2Cn3c(nc4cc5ccccc5cc43)C2N1C (centres undefined) | inconclusive: 8.16% | 
CCN1CCN(C(=O)CN(CC)S(=O)(=O)c2ccc(Cl)cc2)CC1 |  | inconclusive: 4.61 µM [falling, single point]
CCC(=Nc1ccccc1)C1=C(O)CCCC1=O | inconclusive: -17.2% | 
CN(CC(=O)Nc1ccc(Cl)c(C(F)(F)F)c1)C(=O)Cc1n[nH]c(=O)c2ccccc12 | inconclusive: 25% | 
C(=N\n1cnnc1)/c1ccc(N2CCOCC2)cc1 | inconclusive: 0.481% | 
COC(=O)n1ccc(C(=O)Nc2ccccc2F)n1 | inconclusive: -1.64% | 
COc1ccccc1/C=C/C=N/n1c(-c2cc(C)[nH]n2)n[nH]c1=S |  | inconclusive: 0.0231 µM [activator, full curve, poor fit]
COc1ccc(NS(=O)(=O)c2cccc(C(=O)NNC(=O)c3ccc(NC(C)=O)cc3)c2)cc1 | inconclusive | 
O=C(O)CCCCCN1C(=O)C(O)=C(C(=O)/C=C/c2ccccc2)C1c1ccccc1[N+](=O)[O-] (centres undefined) | inconclusive: 30.7% | 
Cc1ccc(C)c(/C=N/n2cc(-c3ccccc3)[nH]c2=S)c1 | inconclusive: -20.3% | 
Cc1ccc(NC(=O)COC(=O)c2ccc(-n3cnnn3)cc2)c(Br)c1 | inconclusive: -0.516% | 
CCOC(=O)CC1=C(C#N)C(c2cccnc2)C(C(=O)OCC)=C(N)O1 (centres undefined) |  | inconclusive: 1.3 µM [activator, partial curve]

Structure (SMILES) | lipid storage change, negative = inhibition | Potency
CCn1ccnc1CN(C)C(=O)c1ccc(OC2CCN(CCc3ccccc3)CC2)cc1 | inconclusive: 46.1% | 
CC1CCN(C(=O)CSc2nnc(Cc3cccn3C)n2-c2ccc(F)cc2)CC1 | inconclusive: 18% | 
CC(=O)Nc1nnc(C2=COCCO2)o1 | inconclusive: -47.6% | 
O=C(Nc1ccc2[nH]c(=O)[nH]c2c1)c1ccc(Br)o1 | inconclusive: 14.7% | 
O=C(NCCCN1CCCC1=O)c1ccc(S(=O)(=O)Nc2cccc(C(F)(F)F)c2)cc1 | inconclusive | 
CC(=O)Nc1ccc(NC(=O)C(C)OC(=O)c2cc(S(=O)(=O)N3CCOCC3)ccc2Cl)cc1 (centres undefined) | inconclusive: -5.46% | 
Cc1ccccc1C(=O)O/N=C/c1c(N2CCOCC2)n(C)c2ccccc12 |  | inconclusive: 0.164 µM [rising, full curve, poor fit]
CCCCNCCCOc1ccc(C)cc1Br | inactive | 
Cc1ccc(CNC(=O)CCS(=O)(=O)Cc2ccc(C)cc2)cc1 | inconclusive: 38.1% | 
CCC(=O)Nc1ccc(C(=O)NNC(=O)c2ccc(Cl)cc2)cc1 | inconclusive: 21.3% | 
CCN1CCN(c2ccc(S(=O)(=O)N3CCOCC3)cc2NC(=O)/C=C/c2ccc(C)cc2)CC1 | inconclusive: 29.3% | 
CC(=O)c1cccc(NC(=S)NC(=O)c2ccccc2Cl)c1 |  | inconclusive: 6.51 µM [activator, partial curve, poor fit]
COC(=O)c1ccc(NC(=O)Cn2nnc(-c3cccs3)n2)cc1 | inconclusive: -13% | 
COc1cc(C)ccc1OCCOCCOc1ccccc1Br |  | inconclusive: 29.1 µM [falling, single point]
COc1cc(NC(=O)CCC2CCCC2)cc(-n2cnnn2)c1 | inconclusive: 21.7% | 
C=CCNC(=O)c1ccc(Sc2ccc(C)cc2)c([N+](=O)[O-])c1 | inactive | 
CCOC(=O)c1ccccc1NC(=O)CN(c1ccccc1C)S(C)(=O)=O |  | inconclusive: 6.51 µM [activator, single point]
CSC1=N/C(=C\c2ccc(Br)o2)C(=O)S1 | inconclusive: -1.95% | 
Cc1cc(C(=O)Nc2ccncc2)ccc1[N+](=O)[O-] | inactive | 
CC1=C(C(=O)N2CCOCC2)C(c2cccs2)NC(=O)N1 (centres undefined) | inconclusive: -16.4% | 
CCc1ccc(OC(C)C(=O)N(Cc2ccco2)C2CCS(=O)(=O)C2)cc1 (centres undefined) | inconclusive: 23.5% | 
CCc1ccc2[nH]c(=O)c(CN(Cc3ccccc3)C(=O)Nc3ccccc3OC)cc2c1 | inconclusive: -2.22% | 
CC(C)CNC(=O)NC(=O)COc1ncnc2sccc12 | inconclusive: 0.257% | 
COC(=O)c1ccc(CN2C(=O)c3ccccc3C2=O)o1 |  | inconclusive: 1.3 µM [activator, full curve]
Cc1ccc(C2CC(c3cccc(C)c3)n3nc(N)nc3N2)cc1 (centres undefined) | inconclusive: 35.7% | 
COc1ccc(/C=N/NC(=O)c2cccc(NC(=O)c3ccccc3Cl)c2)cc1 | inactive | 
CCCC/C(=N\NC(=O)c1ccc(Br)o1)c1ccccc1 | inconclusive: 33.7% | 

At a glance, part of the list above.
Structure (SMILES) | lipid storage change, negative = inhibition | Potency
Cc1ccc(CNC(=O)CCS(=O)(=O)Cc2ccc(C)cc2)cc1 | inconclusive: 38.1% | 
CCC(=O)Nc1ccc(C(=O)NNC(=O)c2ccc(Cl)cc2)cc1 | inconclusive: 21.3% | 
CCN1CCN(c2ccc(S(=O)(=O)N3CCOCC3)cc2NC(=O)/C=C/c2ccc(C)cc2)CC1 | inconclusive: 29.3% | 
CC(=O)c1cccc(NC(=S)NC(=O)c2ccccc2Cl)c1 |  | inconclusive: 6.51 µM [activator, partial curve, poor fit]

The list continues.

Structure (SMILES) | lipid storage change, negative = inhibition | Potency
CCCc1ncc(C(O)c2cccc(OC)c2)n1C (centres undefined) | inconclusive: 13.6% | 
O=C(O)COc1ccc(-c2nc(-c3ccccc3)c(-c3ccccc3)[nH]2)cc1 | inconclusive: 19.4% | 
COc1ccc(C(=O)C2CCCN(Cc3ccc(Sc4nncn4C)o3)C2)cc1F (centres undefined) | inconclusive: 19% | 
COc1ccccc1NS(=O)(=O)c1cccc(C(=O)N/N=C/c2ccc(NC(C)=O)cc2)c1 |  | inconclusive: 6.51 µM [cytotoxic, single point]
COCCCn1c(=O)c2ccccc2n(CC(=O)NC2CCCCC2)c1=O | inconclusive: 9.48% | 
COc1cccc(NC(=O)Nc2nnc(N3CCCCC3C)s2)c1 (centres undefined) | inconclusive: 3.04% | 
O=C(Cc1ccc(-n2c(=O)c3sccc3n(CC(=O)Nc3ccccc3F)c2=O)cc1)NCc1ccco1 | inconclusive: -17.3% | 
CC(CN1CCCCC1)OC(=O)c1ccc2c(c1)OCO2 (centres undefined) | inconclusive: 8.56% | 
Cc1ccc(S(=O)(=O)NCC2CCC(C(=O)NCCCOC(C)C)CC2)cc1 (centres undefined) | inconclusive: 0.59% | 
O=C(NCCOc1ccccc1)c1n[nH]c(=O)c2ccccc12 |  | inconclusive: 29.1 µM [rising, single point]
O=C(O)c1cc2nc(-c3ccccc3)cc(C(F)(F)F)n2n1 | inconclusive: 0.754% | 
COC(=O)C1=C(C)NC2=C(C(=O)CC(c3cccs3)C2)C1c1ccsc1 (centres undefined) |  | inconclusive: 9.2 µM [activator, partial curve]
COc1ccc(NC(=O)c2ccco2)cc1NC(=O)c1ccccc1F |  | inconclusive: 29.1 µM [falling, single point]
C#CCn1c(S(=O)(=O)Cc2ccc(OC)cc2)nc(-c2ccccc2)c1-c1ccccc1 | inconclusive: 44.9% | 
O=C(CCc1ccccc1)NNC(=O)c1ccccc1Cl |  | inconclusive: 4.11 µM [activator, partial curve]
COc1cc(NS(=O)(=O)c2ccc(N/C=C\C(=O)c3ccc(F)cc3)cc2)nc(OC)n1 | inactive | 
COc1ccc(C(CNC(=O)c2ccc(OC)c(S(=O)(=O)N3CCCC3)c2)N2CCCC2)cc1 (centres undefined) | inconclusive: 42.3% | 
Cc1ccc(OCC(=O)Nc2ccc(S(=O)(=O)N3CCCCC3)cc2)c([N+](=O)[O-])n1 |  | inconclusive: 6.51 µM [rising, partial curve, poor fit]
O=C(NCc1nnc2c(C(F)(F)F)cc(Cl)cn12)c1cccnc1 | inconclusive: 338% | 
Cc1noc(C)c1CCC(=O)N1CCCC(CCC(=O)NCc2ccc(F)c(F)c2)C1 (centres undefined) | inconclusive: 36.3% | 
CCN(Cc1ccccc1)c1ccc(/C=N/NC(=S)NC(C)C)cc1 | inactive | 
Cc1cc(SCc2cc(=O)n3ccsc3n2)nc2ccccc12 |  | inconclusive: 20.6 µM [activator, partial curve]
Nc1nnc(SCCCOc2ccc(F)cc2)s1 | inconclusive: -35.8% | 
CCCc1cc(=O)[nH]c(-n2[nH]c3c(c2=O)CCCC3)n1 | inconclusive: -32.4% | 
O=C(CN1C(=O)c2cccc3cccc1c23)Nc1ccc(S(=O)(=O)N2CCOCC2)cc1 | inconclusive: -1.65% | 
